Reference: patent US20140134737, “Alternative Splicing Modulators and Splice Variants and Their Use in the Control and Detection of Pluripotency and Differentiation” (Governing Council of the University of Toronto, published 2014)

What was measured:
[1] = biological target: T1, FOXP1 forkhead domain (canonical, exon 18) (Homo sapiens) (UniProt Q9H334); assay: EMSA; conditions: purified recombinant protein, protein details: GST fusion
T1 sequence (limits assumed): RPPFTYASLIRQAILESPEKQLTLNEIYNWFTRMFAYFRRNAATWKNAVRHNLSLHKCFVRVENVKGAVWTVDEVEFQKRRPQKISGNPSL

[2] = system: T2, FOXP1-ES forkhead domain (exon 18b) (Homo sapiens); assay: EMSA; conditions: purified recombinant protein, protein details: GST fusion
T2 sequence (limits assumed): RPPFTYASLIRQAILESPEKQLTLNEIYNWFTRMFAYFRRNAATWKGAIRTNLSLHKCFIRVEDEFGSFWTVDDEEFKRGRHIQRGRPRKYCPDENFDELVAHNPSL

[3] = FOXP1-ES preferred over FOXP1, label: radiolabeled
[4] = motif bound by both isoforms, label: radiolabeled
[5] = PBM-derived high-affinity FOXP1-ES motif, label: radiolabeled

Sequence: AATAAACACCAATAAACA (double strand) [AATAAACA x2 probe]
- binding result [1, 3]: binds more weakly

Sequence: AACAACAACCAACAACAA (double strand) [AACAACAA x2 probe]
- binding result [1, 4]: binds
- binding result [2, 4]: binds

Sequence: ATACAAAACCATACAAAA (double strand) [ATACAAAA x2 probe]
- binding result [2, 5]: binds

Sequence: CTAAACAACCCTAAACAA (double strand) [CTAAACAA x2 probe]
- binding result [2, 5]: binds

Sequence: CGATACAACCCGATACAA (double strand) [CGATACAA x2 probe]
- binding result [1, 3]: binds more weakly
- binding result ([2]; preferentially bound by FOXP1-ES, also top PBM motif, label: radiolabeled): binds

Sequence: GTAAACAACCGTAAACAA (double strand) [GTAAACAA x2 probe]
- binding result ([1]; 0.2-3.2 pmol protein, preferred by FOXP1, also top PBM motif): binds
- binding result ([2]; 0.2-3.2 pmol protein, FOXP1 preferred over FOXP1-ES): binds more weakly

Sequence: CAACACAACCCAACACAA (double strand) [CAACACAA x2 probe]
- binding result [2, 5]: binds

The comparison behind a weaker result is the experiment's own reference, which may not be listed here. Protein sequences can lack the tags named with them. The exact form of at least one protein or probe is not confirmed.
